PubChem BioAssay AID1259405 | NCATS | 2018
Here is a random part of about 50,000 deposited reagents. Over the whole deposit, about 4,000 (8%) were called active. 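Mouse siRNA library applied to hamster cells; one well for each siRNA.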 Entries without a mark were called inactive. The numbers tell different reagents against one gene apart.

Purpose: 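Mouse-designed siRNAs used to find CHO productivity engineering targets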 (primary screen)
System: Chinese hamster CHO-K1 ovary cells with stable secreted eGFP expression
Reagents: single siRNA against mouse genes, 0.8 pmol siRNA per well (2 µl of 400 nM stock)
Timing: 3 days
Measured: 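Percent of the per-plate non-targeting control median for intracellular GFP per well by laser scanning cytometry and for cell viability by ATP luminescence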
Direction: GFP, % of control: higher = more GFP per well, higher productivity; viability (ATP), % of control: higher = more viable cells (more ATP)
Active means: 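a knock-down is called active if GFP reaches 120% or more of non-targeting control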

"GFP, % of control","viability (ATP), % of control",gene,siRNA no.
55.7,51.8,Larp4b (La ribonucleoprotein 4B),1
73,80.9,Larp4b (La ribonucleoprotein 4B),2
82.1,74.2,Larp4b (La ribonucleoprotein 4B),3
68.4,69.3,Mrps15 (mitochondrial ribosomal protein S15),1
64.2,66.3,Mrps15 (mitochondrial ribosomal protein S15),2
90.2,81.9,Mrps15 (mitochondrial ribosomal protein S15),3
59.1,46,Rpl7l1 (ribosomal protein L7-like 1),1
139 (active),86.3,Rpl7l1 (ribosomal protein L7-like 1),2
51.9,59,Rpl7l1 (ribosomal protein L7-like 1),3
91.9,84.9,Dusp12 (dual specificity phosphatase 12),1
66.9,68.2,Dusp12 (dual specificity phosphatase 12),2
78.2,80,Dusp12 (dual specificity phosphatase 12),3
117,120,Ntn4 (netrin 4),1
86.5,90.8,Ntn4 (netrin 4),2

Records above whose gene name begins with L or l:
"GFP, % of control","viability (ATP), % of control",gene,siRNA no.
55.7,51.8,Larp4b (La ribonucleoprotein 4B),1
73,80.9,Larp4b (La ribonucleoprotein 4B),2
82.1,74.2,Larp4b (La ribonucleoprotein 4B),3

More reagents follow:
"GFP, % of control","viability (ATP), % of control",gene,siRNA no.
104,95.1,Pank4 (pantothenate kinase 4),1
53.2,57.4,"Lman1l (lectin, mannose-binding 1 like)",1
69.5,40.7,"Lman1l (lectin, mannose-binding 1 like)",2
54.5,69.7,"Lman1l (lectin, mannose-binding 1 like)",3
116,99.6,Plxna4 (plexin A4),1
95.5,82.4,Plxna4 (plexin A4),2
62.2,44.8,Plxna4 (plexin A4),3
103,114,"Abca2 (ATP-binding cassette, sub-family A member 2)",1
122 (active),106,"Abca2 (ATP-binding cassette, sub-family A member 2)",2
106,123,"Abca2 (ATP-binding cassette, sub-family A member 2)",3
89.2,78.1,Ddx51 (DEAD box helicase 51),1
77,67.7,Ddx51 (DEAD box helicase 51),2
35.1,91.1,Ddx51 (DEAD box helicase 51),3
94.3,86.9,Cldn16 (claudin 16),1
79.1,75,Cldn16 (claudin 16),2
110,117,Cldn16 (claudin 16),3
61.1,66.1,Or5i1 (olfactory receptor family 5 subfamily I member 1),1
74,92.6,Or5i1 (olfactory receptor family 5 subfamily I member 1),2
100,92.6,Or5i1 (olfactory receptor family 5 subfamily I member 1),3
37.1,48.6,Rad54l2 (RAD54 like 2 (S. cerevisiae)),1
103,84.1,Rad54l2 (RAD54 like 2 (S. cerevisiae)),2
34.8,49.4,Rad54l2 (RAD54 like 2 (S. cerevisiae)),3
